PubChem BioAssay AID720709 (National Center for Advancing Translational Sciences (NCATS), 2013)
The whole screen tested about 360,000 compounds, of which about 520 (0.14%) were called active. Only results without a clear call are listed here; the source files them as inconclusive. The call rests on the fitted dose curve; in most records, active means well fitted inhibition curve with a large enough effect; inconclusive means small, poorly fitted or top-dose-only effect; inactive means no such curve, though single readings can be large or run the other way.

Protein sequences, listed by entry. Tags and fused reporters are not part of them.
UniProt O95398, whole entry: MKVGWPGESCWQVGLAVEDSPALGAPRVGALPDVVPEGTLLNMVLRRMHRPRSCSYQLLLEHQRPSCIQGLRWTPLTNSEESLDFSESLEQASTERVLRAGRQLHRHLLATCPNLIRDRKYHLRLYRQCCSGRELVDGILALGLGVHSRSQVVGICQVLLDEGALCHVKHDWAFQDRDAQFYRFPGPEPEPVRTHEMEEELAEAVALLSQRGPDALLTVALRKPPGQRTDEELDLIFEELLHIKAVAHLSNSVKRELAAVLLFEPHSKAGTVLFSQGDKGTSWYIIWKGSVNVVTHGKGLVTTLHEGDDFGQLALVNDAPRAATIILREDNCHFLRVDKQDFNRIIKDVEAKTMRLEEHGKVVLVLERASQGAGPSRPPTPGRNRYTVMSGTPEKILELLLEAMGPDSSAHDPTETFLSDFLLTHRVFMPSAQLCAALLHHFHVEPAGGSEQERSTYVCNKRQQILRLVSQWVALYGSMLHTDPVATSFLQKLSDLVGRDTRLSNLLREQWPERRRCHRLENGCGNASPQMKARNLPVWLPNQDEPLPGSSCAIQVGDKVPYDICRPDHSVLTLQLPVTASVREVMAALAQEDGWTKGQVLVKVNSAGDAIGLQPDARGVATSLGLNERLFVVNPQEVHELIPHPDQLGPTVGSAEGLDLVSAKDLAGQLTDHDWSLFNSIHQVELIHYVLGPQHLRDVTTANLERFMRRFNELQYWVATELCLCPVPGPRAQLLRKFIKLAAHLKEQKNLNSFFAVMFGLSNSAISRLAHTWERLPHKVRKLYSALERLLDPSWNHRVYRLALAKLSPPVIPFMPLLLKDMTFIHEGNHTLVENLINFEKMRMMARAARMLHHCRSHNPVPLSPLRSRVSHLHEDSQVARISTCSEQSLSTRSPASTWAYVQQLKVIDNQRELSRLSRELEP

target: Rap guanine nucleotide exchange factor 3 (Homo sapiens) (UniProt O95398); assay: qHTS for Antagonist of cAMP-regulated guanine nucleotide exchange factor 3 (EPAC1): primary screen; settings: EPAC1 GEF assay, Rap1b-BODIPY-GDP exchange fluorescence; further: nearly all actives have a fitted effect of over 50% in size
Excerpt: In multi-cellular eukaryotic organisms, the effects of cAMP are transduced by two ubiquitously-expressed intracellular cAMP receptors, the classic protein kinase A/cAMP-dependent protein kinase (PKA/cAPK) and the more recently discovered exchange protein directly activated by cAMP/cAMP-regulated guanine nucleotide exchange factor (EPAC/cAMP-GEF). Both PKA and EPAC are ubiquitously expressed in all tissues, and an increase in intracellular cAMP levels will lead to the activation of both PKA and EPAC. Therefore, careful dissections of the individual role and relative contribution of EPAC and PKA within the overall cAMP signaling in various model systems are critical for further elucidating the mechanism of cAMP signaling. To date no EPAC-specific antagonists and agonist, as well as isoform-specific agonists have been reported, and developing EPAC-specific pharmacological probes to determine the physiological functions that EPAC play in the overall cAMP-mediated signaling remains a major challenge within the research field. Furthermore, identified regulators of EPAC may lead to new mechanism-based therapeutic strategies specifically targeting the EPAC / cAMP-signaling components as EPAC has been implicated to play important roles in major human pathological conditions such as diabetes, heart disease, and cancer. This qHTS will be used to screen the Molecular Libraries Small Molecule Repository (MLSMR) as a concentration-titration series using the NCGC unique quantitative screening (qHTS) platform to find inhibitors for EPAC1. In addition, this assay will also be used as a counterscreen for the EPAC2 qHTS. This fluorescent based assay is developed and validated for EPAC1 that measures exchange using EPAC effector Rap1 complex with BODIPY-GDP, a GDP analog with a tethered fluorophores. Inhibitors are identified by monitoring the change in fluorescence signal as the exchanged free BODIPY-GDP has a reduced fluorescence compared to Rap1-bound BODIPY-GDP. Decrease in signal (inhibition) is the desired outcome for the EPAC1 antagonist while no activity in this assay is desired for the EPAC2 antagonist counterscreen. de Rooij, J., Zwartkruis, F. J., Verheijen, M. H., Cool, R. H., Nijman, S. M., Wittinghofer, A., and Bos, J.L. (1998) Nature 396, 474-477 [2] Kawasaki, H., Springett, G. M., Mochizuki, N., Toki, S., Nakaya, M., Matsuda, M., Housman, D. E., and Graybiel, A. M. (1998) Science 282, 2275-2279 NIH Chemical Genomics Center [NCGC] NIH Molecular Libraries Probe Centers Network [MLPCN] MLPCN Grant: NS066510 Assay Submitter (PI): Xiaodong Cheng, The University of Texas, Medical Branch
Briefly, three uL of reagents (100 nM EPAC1, 250 nM RAP1B-BODIPY-GDP, 50 uM GDP) were dispensed into a 1536-well Greiner black solid-bottom medium binding assay plate. Controls and test compounds (23 nL) were transferred to the plate via a Kalypsys pin tool equipped with a 1536-pin array. The plates were centrifuged at 1,000 rpm for 15 seconds followed by 5 minute incubation at room temperature. The assay plates were read at 5 minute intervals for 30 minutes in the ViewLux plate reader using 480nm excitation and 540nm emission filters. The results were normalized to the […] positive control ATA and DMSO.
Potency means the concentration at half of the fitted maximal effect.

Row | SMILES | Potency
1 | Cc1cc(C)cc(OP(C)(=O)Nc2cccc(C(F)(F)F)c2)c1 (configuration not stated) | inconclusive: 35.5 µM
2 | CC(C)c1ccc(OP(C)(=O)Nc2ccc(SC(F)(F)F)cc2)cc1 (configuration not stated) | inconclusive: 14.1 µM
3 | CCCCCOc1ccc(NP(C)(=O)Oc2ccc(Cl)cc2Cl)cc1 (configuration not stated) | inconclusive: 44.7 µM
4 | O=[N+]([O-])c1cc([N+](=O)[O-])c(C(F)(F)F)c([N+](=O)[O-])c1O | inconclusive: 89.1 µM
5 | CC1=C2N=C(C=C3N=C(C(C)=C4[N-][C@@](C)([C@@H]5N=C1[C@](C)(CCC(=O)NC[C@@H](C)OP(=O)([O-])O[C@H]1[C@@H](O)[C@@H](n6cnc7cc(C)c(C)cc76)O[C@@H]1CO)[C@H]5CC(N)=O)[C@@](C)(CC(N)=O)[C@@H]4CCC(N)=O)[C@@](C)(CC(N)=O)[C@@H]3CCC(N)=O)C(C)(C)[C@@H]2CCC(N)=O.[C-]#N.[Co+3] | inconclusive: 79.4 µM
6 | Cc1cc(C)cc(OP(C)(=O)Nc2ccc(SC(F)(F)F)cc2)c1 (configuration not stated) | inconclusive: 56.2 µM
7 | CP(=O)(Nc1ccc(SC(F)(F)F)cc1)Oc1ccc(Cl)cc1 (configuration not stated) | inconclusive: 2.24 µM
